Assay results as given in article PMC9735965, “Recovery of Gallium-68 and Zinc from HNO3-Based Solution by Liquid–Liquid Extraction with Arylamino Phosphonates” (Molecules, 2022).

Assays:
[1] = Batch LLE of ^68Ga from 1 M zinc nitrate in 0.01 M nitric acid; conditions: for ^68Ga EE (%) / distribution ratio Ds = [68Gatot]org/[68Gatot]aq: batch; for gallium-68 extracted (up to): in batch, highest value
[2] = Continuous membrane-based LLE of ^68Ga in flow (extraction and stripping); conditions: highest value
[3] = 10 mM extractant in heptane, RT
[4] = 10 mM extractant in anisole, 50 °C
[5] = 10 mM extractant in anisole, RT
[6] = 10 mM extractant in CHCl3/heptane 3/1 (v/v), RT
[7] = 10 mM extractant in heptane/TFT 1:1 (v/v), RT
[8] = 10 mM extractant in heptane, 50 °C
[9] = 10 mM extractant in Bu2O, 50 °C

CCCCCCCCOP(=O)(O)C(Nc1ccccc1)c1ccccc1 (stereo not drawn) [Extractant 1, reference compound]
EE ([1]; aqueous phase 0.01 M HNO3): 30%
EE ([1]; aqueous phase 0.2 M HNO3): 4.2%
EE ([1]; aqueous phase 1 M HNO3): 1.2%
^68Ga EE (%) [1, 3]: 30.6 ± 2.0%
distribution ratio Ds = [68Gatot]org/[68Gatot]aq [1, 3]: 10.2

COP(=O)(O)C(Nc1ccc(C(C)(C)C)cc1)c1ccc(C(C)(C)C)cc1 (stereo not drawn) [Extractant 2]
^68Ga EE (%) [1, 4]: 32.9 ± 2.3%
distribution ratio Ds = [68Gatot]org/[68Gatot]aq [1, 4]: 11.0
^68Ga EE (%) [1, 5]: 8.3 ± 3.1%
distribution ratio Ds = [68Gatot]org/[68Gatot]aq [1, 5]: 2.8

CCCCCCCCOP(=O)(O)C(Nc1ccc(OC)cc1)c1cccs1 (stereo not drawn) [Extractant 3]
^68Ga EE (%) [1, 6]: 20.8 ± 2.0%
distribution ratio Ds = [68Gatot]org/[68Gatot]aq [1, 6]: 7.0

CCCCCCCCOP(=O)(O)C(Nc1ccc(C(F)(F)F)cc1)c1ccc(C(C)(C)C)cc1 (stereo not drawn) [Extractant 4]
^68Ga EE (%) ([1]; 10 mM extractant in Bu2O, RT): 8.1 ± 2.4%
distribution ratio Ds = [68Gatot]org/[68Gatot]aq ([1]; 10 mM extractant in Bu2O, RT): 2.7
EE ([1]; phosphonic acid versus its potassium salt, solvent and temperature not stated): 8%

CCCCCCCCOP(=O)(O)C(Nc1ccc(OC)cc1)c1ccc(C(F)(F)F)cc1 (stereo not drawn) [Extractant 5]
^68Ga EE (%) ([1]; 10 mM extractant in Bu2O, RT): 34.1 ± 2.0%
distribution ratio Ds = [68Gatot]org/[68Gatot]aq ([1]; 10 mM extractant in Bu2O, RT): 11.4

COP(=O)(O)C(Nc1ccc(C(F)(F)F)cc1)c1cc(C(F)(F)F)cc(C(F)(F)F)c1 (stereo not drawn) [Extractant 6]
^68Ga EE (%) ([1]; 10 mM extractant in Bu2O, RT): 24.8 ± 1.9%
distribution ratio Ds = [68Gatot]org/[68Gatot]aq ([1]; 10 mM extractant in Bu2O, RT): 8.3
^68Ga EE (%) [1, 7]: 49.7 ± 2.6%
distribution ratio Ds = [68Gatot]org/[68Gatot]aq [1, 7]: 16.6

CCCCCCCCOP(=O)(O)C(Nc1cc(C(F)(F)F)cc(C(F)(F)F)c1)c1ccc(C(C)(C)C)cc1 (stereo not drawn) [Extractant 7]
^68Ga EE (%) [1, 8]: 37.7 ± 2.3%
distribution ratio Ds = [68Gatot]org/[68Gatot]aq [1, 8]: 12.6
^68Ga EE (%) [1, 3]: 16.4 ± 2.0%
distribution ratio Ds = [68Gatot]org/[68Gatot]aq [1, 3]: 5.5

COCCOCCOP(=O)(O)C(Nc1cc(C(F)(F)F)cc(C(F)(F)F)c1)c1ccc(C(F)(F)F)cc1 (stereo not drawn) [Extractant 8]
gallium-68 extracted (up to) [2]: up to 80%
^68Ga EE (%) [1, 9]: 80.1 ± 3.0%
distribution ratio Ds = [68Gatot]org/[68Gatot]aq [1, 9]: 26.7
^68Ga EE (%) ([1]; 10 mM extractant in Bu2O, RT): 41.3 ± 2.5%
distribution ratio Ds = [68Gatot]org/[68Gatot]aq ([1]; 10 mM extractant in Bu2O, RT): 13.8
distribution ratio Ds = [68Gatot]org/[68Gatot]aq ([1]; 10 mM extractant in TFT, 50 °C): 29.4
^68Ga EE (%) ([1]; 10 mM extractant in TFT, RT): 60.5 ± 1.9%
distribution ratio Ds = [68Gatot]org/[68Gatot]aq ([1]; 10 mM extractant in TFT, RT): 20.2
gallium-68 extracted (up to) [1]: up to 90%

COCCOCCOP(=O)(O)C(Nc1cc(C(F)(F)F)cc(C(F)(F)F)c1)c1cc(C(F)(F)F)cc(C(F)(F)F)c1 (stereo not drawn) [Extractant 9]
gallium-68 extracted (up to) [2]: up to 80%
distribution ratio Ds = [68Gatot]org/[68Gatot]aq [1, 9]: 29.9
distribution ratio Ds = [68Gatot]org/[68Gatot]aq ([1]; 10 mM extractant in Bu2O, RT): 23.0
^68Ga EE (%) ([1]; 10 mM extractant in TFT, 50 °C): 88.2 ± 2.3% and 89.6 ± 3.5%
^68Ga EE (%) ([1]; 10 mM extractant in TFT, RT): 69.1 ± 3.0%
gallium-68 extracted (up to) [1]: up to 90%

Values joined by “and” are separate entries in the source; they are usually repeats but may differ in a detail not shown here. Equal values may be shown once.
